Measurements reported in PubChem BioAssay AID686943 (Drosophila RNAi Screening Center, 2013)

Aim: 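Fly genes whose loss alters ERK activation after insulin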 (primary screen)
System: Drosophila S2R+ haemocyte-like cells expressing YFP-tagged ERK (Rolled)
Knock-down reagent: long dsRNA against Drosophila genes
Challenge: insulin stimulation versus unstimulated cells; dose and duration not given
Measurement: 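Per-plate z-scores of phospho-ERK immunostaining normalised to YFP-tagged ERK, measured with and without insulin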
Reading the numbers: replicate 1, z-score of dpERK with insulin and replicate 2, z-score of dpERK with insulin: higher = more active ERK per ERK-YFP after insulin
The screen tested about 23,000 reagents; this is an unselected part of those that have a named target and a result. 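Extra replicates exist only for a retested subset of genes; insulin dose and duration not given; both raised and lowered dpERK matter.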 Names joined by + are all predicted targets of the reagent. Not all columns of the deposit are shown. Reagent sequences are not shown. Not given: the amount of reagent, the time to read-out.

Trap1 [DRSC05019]
- replicate 1, z-score of dpERK with insulin: 0.12
- replicate 2, z-score of dpERK with insulin: 0.13

Tsen2 (tRNA splicing endonuclease subunit 2) [DRSC01557]
- replicate 1, z-score of dpERK with insulin: -0.53
- replicate 2, z-score of dpERK with insulin: -0.72

asRNA:CR43469 + Balat [DRSC06852]
- replicate 1, z-score of dpERK with insulin: -0.22
- replicate 2, z-score of dpERK with insulin: 0.34

CG13928 [DRSC08397]
- replicate 1, z-score of dpERK with insulin: -1.61
- replicate 2, z-score of dpERK with insulin: -0.12

CG10710 [DRSC09784]
- replicate 1, z-score of dpERK with insulin: -0.13
- replicate 2, z-score of dpERK with insulin: 0.75

Laid out differently: 2 of the entries above.
gene,dsRNA,"replicate 1, z-score of dpERK with insulin","replicate 2, z-score of dpERK with insulin"
Trap1,DRSC05019,0.12,0.13
Tsen2 (tRNA splicing endonuclease subunit 2),DRSC01557,-0.53,-0.72

More records:
Cyp6a21 (Cytochrome P450 6a21) [DRSC07381]
- replicate 1, z-score of dpERK with insulin: -0.61
- replicate 2, z-score of dpERK with insulin: -1.12

CG13896 [DRSC08366]
- replicate 1, z-score of dpERK with insulin: 0.07
- replicate 2, z-score of dpERK with insulin: -0.49

drn + CG43675 [DRSC15147]
- replicate 1, z-score of dpERK with insulin: -0.56
- replicate 2, z-score of dpERK with insulin: -0.78

CG10366 [DRSC02046]
- replicate 1, z-score of dpERK with insulin: 0.41
- replicate 2, z-score of dpERK with insulin: 0.48

tos (tosca) [DRSC03624]
- replicate 1, z-score of dpERK with insulin: 0.83
- replicate 2, z-score of dpERK with insulin: 0.25

Cht12 (Chitinase 12) [DRSC03844]
- replicate 1, z-score of dpERK with insulin: -0.11
- replicate 2, z-score of dpERK with insulin: -0.44

CG10914 [DRSC06010]
- replicate 1, z-score of dpERK with insulin: 0.41
- replicate 2, z-score of dpERK with insulin: 0.31
